In paper PMC3296622 one finds binding data, which are given here for one substance.

Chains of the proteins cited; added tags and fusions are not shown. Lines headed by an entry give the natural chain unless they say otherwise; changes in a name come on top.
UniProt Q61006: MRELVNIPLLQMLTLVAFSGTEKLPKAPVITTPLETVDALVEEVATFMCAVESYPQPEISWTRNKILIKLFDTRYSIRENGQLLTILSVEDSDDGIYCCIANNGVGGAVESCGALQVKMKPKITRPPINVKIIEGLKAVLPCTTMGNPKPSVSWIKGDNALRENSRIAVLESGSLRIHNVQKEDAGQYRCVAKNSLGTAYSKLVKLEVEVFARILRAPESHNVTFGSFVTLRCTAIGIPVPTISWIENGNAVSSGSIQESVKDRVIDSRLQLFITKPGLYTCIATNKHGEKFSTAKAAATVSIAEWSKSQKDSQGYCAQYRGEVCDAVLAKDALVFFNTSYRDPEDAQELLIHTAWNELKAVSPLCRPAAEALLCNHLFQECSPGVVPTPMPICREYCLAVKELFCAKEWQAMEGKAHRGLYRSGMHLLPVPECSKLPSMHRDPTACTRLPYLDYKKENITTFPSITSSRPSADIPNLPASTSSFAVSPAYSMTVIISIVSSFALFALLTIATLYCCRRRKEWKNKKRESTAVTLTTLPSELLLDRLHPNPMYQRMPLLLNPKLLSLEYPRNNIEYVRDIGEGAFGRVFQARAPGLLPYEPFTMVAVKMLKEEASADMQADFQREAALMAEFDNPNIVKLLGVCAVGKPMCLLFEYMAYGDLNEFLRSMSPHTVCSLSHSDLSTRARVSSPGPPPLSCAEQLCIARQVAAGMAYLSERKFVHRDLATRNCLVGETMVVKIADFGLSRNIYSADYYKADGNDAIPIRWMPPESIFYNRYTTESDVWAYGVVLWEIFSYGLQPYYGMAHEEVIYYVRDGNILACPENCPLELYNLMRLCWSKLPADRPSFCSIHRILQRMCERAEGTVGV

These are yes or no findings as the source states them, for the method shown. Binding seen in cells or lysates may run through a third protein. A result given as binding can be weak or reduced; the word gives no strength. Sequences can lack the tags named with a protein.

For the test, the target named is T1, Flag-tagged Wnt11 (UniProt P48615).
T1 sequence: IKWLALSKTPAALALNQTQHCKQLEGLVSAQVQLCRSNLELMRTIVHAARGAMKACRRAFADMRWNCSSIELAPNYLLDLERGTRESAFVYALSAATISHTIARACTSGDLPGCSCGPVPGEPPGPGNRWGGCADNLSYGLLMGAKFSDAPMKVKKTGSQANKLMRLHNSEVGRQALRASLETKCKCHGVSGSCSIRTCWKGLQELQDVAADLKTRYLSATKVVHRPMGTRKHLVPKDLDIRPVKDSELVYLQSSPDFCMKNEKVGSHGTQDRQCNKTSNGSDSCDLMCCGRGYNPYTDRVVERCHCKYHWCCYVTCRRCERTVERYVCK
Description: pull-down; solution binding assay: Flag-Wnts immobilised on beads, incubated with the Myc-tagged soluble ectodomain protein; bound proteins resolved by SDS-PAGE and blotted with anti-Myc and anti-Flag.

With “ectΔCRD, a mutant MuSKect without the CRD (from UniProt Q61006) (domain or fragment)”, the binding entry is on record as “binds”.
